In publication PMC10773939:
Results are given in words; binding and its absence hold for the method and conditions named. Binding seen in cells or lysates may run through a third protein. Some results given as binding are weak or reduced against the parent protein; the word gives no strength.

Amino acid sequences for entries named in this document (tags omitted).
UniProt P08100: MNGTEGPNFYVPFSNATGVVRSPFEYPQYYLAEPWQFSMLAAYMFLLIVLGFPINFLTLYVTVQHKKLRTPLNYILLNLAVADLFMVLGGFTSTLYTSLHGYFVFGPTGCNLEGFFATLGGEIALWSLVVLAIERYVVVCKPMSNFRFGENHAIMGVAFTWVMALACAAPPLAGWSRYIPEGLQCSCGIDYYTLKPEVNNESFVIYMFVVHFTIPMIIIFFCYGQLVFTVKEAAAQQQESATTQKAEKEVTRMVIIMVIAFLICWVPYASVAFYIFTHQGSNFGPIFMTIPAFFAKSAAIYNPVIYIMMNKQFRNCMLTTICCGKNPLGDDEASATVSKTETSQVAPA
UniProt P15409: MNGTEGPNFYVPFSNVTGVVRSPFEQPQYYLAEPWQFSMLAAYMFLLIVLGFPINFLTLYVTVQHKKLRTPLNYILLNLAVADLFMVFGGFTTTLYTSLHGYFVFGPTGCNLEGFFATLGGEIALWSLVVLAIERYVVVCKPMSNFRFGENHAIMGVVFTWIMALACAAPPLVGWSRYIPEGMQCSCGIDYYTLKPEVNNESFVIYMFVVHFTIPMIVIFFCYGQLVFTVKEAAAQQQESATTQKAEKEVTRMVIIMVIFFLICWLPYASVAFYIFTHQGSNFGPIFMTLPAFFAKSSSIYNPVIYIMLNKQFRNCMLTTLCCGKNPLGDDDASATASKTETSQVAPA
UniProt P60879: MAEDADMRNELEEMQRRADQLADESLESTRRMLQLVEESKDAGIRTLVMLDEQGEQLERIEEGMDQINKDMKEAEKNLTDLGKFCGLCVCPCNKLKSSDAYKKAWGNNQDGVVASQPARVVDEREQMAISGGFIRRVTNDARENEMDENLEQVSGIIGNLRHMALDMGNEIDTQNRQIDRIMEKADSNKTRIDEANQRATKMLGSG

Experiments:
[1] = molecular target: human rhodopsin-GFP fusion (Rho-GFP) from Rho-GFP/+ knock-in mouse retina (human) (UniProt P08100); experiment: co-IP; GFP-Trap beads added to IS-enriched retinal lysates (Rho-GFP/+ or Rho-GFP-1D4/+ mice; T-PER lysis buffer), overnight at 4°C, 4 washes in PBS-T, western blot of bound fraction
[2] = molecular target: human rhodopsin-GFP-1D4 fusion (Rho-GFP-1D4) from Rho-GFP-1D4/+ knock-in mouse retina (human) (UniProt P08100); experiment: as above
[3] = molecular target: endogenous mouse rhodopsin (mouse (endogenous in retina)) (UniProt P15409); experiment: co-IP; anti-1D4 IgG-conjugated beads added to IS-enriched retinal lysates (Rho-GFP/+ or WT mice; T-PER lysis buffer), overnight at 4°C, 4 washes in PBS-T, western blot of bound fraction

binding [1] | binding [2] | binding [3] | Molecule
binds | binds |  | SNAP25 (from UniProt P60879 1-206)
 |  | binds | human rhodopsin-GFP fusion (Rho-GFP) from Rho-GFP/+ knock-in mouse retina (from UniProt P08100 1-348) (receptor)
binds | binds | binds | syntaxin 3 (protein, UniProt Q64704 1-289) MKDRLEQLKAKQLTQDDDTDEVEIAIDNTAFMDEFFSEIEETRLNIDKISEHVEEAKKLYSIILSAPIPEPKTKDDLEQLTTEIKKRANNVRNKLKSMEKHIEEDEVRSSADLRIRKSQHSVLSRKFVEVMTKYNEAQVDFRERSKGRIQRQLEITGKKTTDEELEEMLESGNPAIFTSGIIDSQISKQALSEIEGRHKDIVRLESSIKELHDMFMDIAMLVENQGEMLDNIELNVMHTVDHVEKARDETKRAMKYQGQARKKLIIIIVVVVVLLGILALIIGLSVGLK
